Oligonucleotides screened, 5′ to 3′:
TPP: TPP riboswitch RNA three-way junction, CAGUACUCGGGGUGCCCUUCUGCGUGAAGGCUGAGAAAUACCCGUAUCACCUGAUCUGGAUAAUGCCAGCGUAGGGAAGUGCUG. Hit rate about 0.7% of about 24,000 compounds.
PreQ1: PreQ1 riboswitch RNA pseudoknot, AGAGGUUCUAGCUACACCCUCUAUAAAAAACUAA. From B. subtilis. Hit rate about 0.7% of about 24,000 compounds.
SAM-II: SAM-II riboswitch RNA pseudoknot, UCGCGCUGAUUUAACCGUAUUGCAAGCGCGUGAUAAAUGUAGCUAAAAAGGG. Hit rate about 1% of about 21,000 compounds.

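Each compound is printed as two spots on a slide made to bind it covalently, so it has no test concentration; the read-out is fluorescence of the bound, labelled oligonucleotide. The data file lists only calls. An earlier report of the laboratory on the PreQ1, TPP and SAM-II riboswitches (doi:10.1038/s41467-019-09493-3) used 1 µM RNA for 2 h and required a mean Z-score above 3 (spot signal-to-noise against the whole library), a score well above that on a control array, and duplicate spots agreeing (coefficient of variation under 100); it then also set aside compounds that hit other targets, which this list keeps. The cut-offs behind this list may differ. A missing hit is not proof of no binding, and a hit is not a measured affinity.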
Key: hit = hit, no hit = tested without a hit.
The compounds are a random part of those screened.
A target missing from an entry has no call listed here.
A dash means that no call is listed here.

SMILES,TPP,PreQ1,SAM-II
CCc1c(C)nc2nncn2c1NCc1ccc(C)cc1,no hit,no hit,-
COC(C)(C)C(=O)N1C[C@H](c2ccc(C)o2)[C@@H](N)C1,no hit,no hit,no hit
COc1ccc(CCNc2nc(-c3ccccn3)cs2)cc1OC,no hit,no hit,no hit
Cc1c(Cl)c(C(=O)N2C[C@@H](CN3CCOCC3)[C@@H](CO)C2)nn1C,no hit,no hit,no hit
CS(=O)(=O)c1ccc(CN2CCCC3(CCNC3)C2)cc1 (stereo not given),no hit,no hit,no hit
CC(c1c[nH]c2ccccc12)C(O)C(=O)O (stereo not given),no hit,no hit,no hit
CSc1ccc(CNCCc2c[nH]c3ccccc23)cc1,no hit,no hit,no hit
CC(C)(C)c1ccc(OCc2nnc(N)s2)cc1,no hit,no hit,no hit
COC(=O)c1c(C)nn(CCC#N)c1N,no hit,no hit,-
O=S(=O)(CCNCc1nc(-c2ccco2)no1)N1CCCC1,no hit,no hit,no hit
CCCCC(c1cccnc1)N(C)C(=O)CSc1nnc(N)s1 (stereo not given),no hit,no hit,no hit
CCNC(=O)[C@@H]1C[C@@H](N)CN1C(=O)c1ccc(Cn2nc(C)cc2C)cc1,no hit,no hit,no hit
N#CC1=C(N)Oc2ccc3ccccc3c2C1c1ccccc1 (stereo not given),no hit,no hit,no hit
CC(=O)C1=C(O)C(=O)N(CO)C1c1ccccc1F (stereo not given),no hit,no hit,no hit
Cn1ncc2c(N[C@@H]3c4ccccc4C[C@@H]3O)nc(-c3ccncc3)nc21,no hit,no hit,no hit
OCC#Cc1ccc(-c2nccn2CCN2CCOCC2)s1,no hit,no hit,no hit
C#CCNc1nnc(C)c2nnn(Cc3ccccc3Cl)c12,no hit,no hit,-
Cc1cc(OCCCc2c(C(=O)O)n(Cc3cccnc3)c3c(-c4c(COc5ccc(N6CCN([S+](C)(=O)[O-])CC6)cc5)nn(C)c4C)cccc23)cc(C)c1Cl,no hit,no hit,no hit
CC(C)(C#N)c1cc(Cn2cncn2)cc(C(C)(C)C#N)c1,no hit,no hit,no hit
Cc1nonc1C(=O)N1CCN(C)C2(CCC(=O)N(CCO)CC2)C1 (stereo not given),no hit,no hit,no hit
Cc1ccccc1Nc1nc2ccccc2c2nnc(C)n12,no hit,no hit,-
CNc1ccc(C)cc1C(=O)c1ccc(Cl)cc1,no hit,no hit,no hit
Cc1ccc(C(=O)NC(Nc2ccc(S(=O)(=O)Nc3nc(C)cc(C)n3)cc2)C(Cl)(Cl)Cl)cc1 (stereo not given),no hit,no hit,no hit
COc1cccc(C(=O)N2CCN(C(=O)c3nonc3N)CC2)c1,no hit,no hit,-
Cc1ccc(C(=O)c2cc(O)c(O)c([N+](=O)[O-])c2)cc1,no hit,no hit,no hit
COc1ccc(-c2cnc(NCc3cccc(OC)c3)n2C)cc1,no hit,no hit,no hit
N#Cc1c2c(c(N3CCN(CCO)CC3)n3c1nc1ccccc13)CCC2,no hit,no hit,no hit
O=C1NC(=O)C(=Cc2ccc(-c3ccc(F)cc3O)o2)S1,no hit,no hit,no hit
CC1Cc2ccccc2N1NC(=O)c1ccc(Cl)c(S(N)(=O)=O)c1 (stereo not given),no hit,no hit,no hit
N[C@@H]1CC[C@H](C(=O)NCc2nnnn2-c2ccccc2)C1,no hit,no hit,no hit
COc1ccc([C@H]2C[C@@H](c3ccc(F)cc3)Nc3nc(N)nn32)cc1,no hit,no hit,no hit
CSc1nc(N)c(C#N)c(-c2ccccc2)c1C#N,no hit,no hit,no hit
OCCNc1ncnc2c1sc1nc(-c3ccccc3)c3c(c12)CCCC3,no hit,no hit,no hit
NC1=C(c2nc3ccccc3s2)C(=O)CN1C1CCCCCC1,no hit,no hit,-
Cc1c(N)c(=O)n(-c2ccccc2)n1C,no hit,no hit,no hit
COc1ccc(CNCc2cccc(OC)c2)cc1,hit,no hit,no hit
COc1ccccc1-c1cc2nc(C)cc(Nc3ccc(F)cc3)n2n1,no hit,no hit,-
Nc1c2c(nc3c1CCC3)CCCC2,no hit,no hit,no hit
CCN(CC)C(=O)[C@@H]1C[C@@H](N)CN1C(=O)c1ccc(C)[nH]c1=O,no hit,no hit,no hit
CCc1nnc(NCCN2CCCCC2CO)o1 (stereo not given),no hit,no hit,no hit
COC(Cn1ccnc1-c1ccc(CO)o1)c1cccs1 (stereo not given),no hit,no hit,no hit
CC(C)c1cc(N2CCc3nnc(-c4ccccc4)n3CC2)nc(N)n1,no hit,no hit,no hit
COCc1cc(C)nc2sc(C(=O)Nc3ccc(Cl)cc3)c(N)c12,no hit,no hit,no hit
COc1ccc(N2CCN(C(=O)CSc3nnc(N)s3)CC2=O)cc1,no hit,no hit,no hit
Cc1ccc(C(=O)CNc2ccc(F)cc2)cc1,no hit,hit,no hit
CCNc1nc(SCCOc2ccccc2)nc(N(C)C)n1,no hit,no hit,no hit

5 of the entries, repeated:

* OCCNc1ncnc2c1sc1nc(-c3ccccc3)c3c(c12)CCCC3 : TPP: no hit; PreQ1: no hit; SAM-II: no hit
* NC1=C(c2nc3ccccc3s2)C(=O)CN1C1CCCCCC1 : TPP: no hit; PreQ1: no hit
* CS(=O)(=O)c1ccc(CN2CCCC3(CCNC3)C2)cc1 (stereo not given) : TPP: no hit; PreQ1: no hit; SAM-II: no hit
* O=S(=O)(CCNCc1nc(-c2ccco2)no1)N1CCCC1 : TPP: no hit; PreQ1: no hit; SAM-II: no hit
* COc1ccccc1-c1cc2nc(C)cc(Nc3ccc(F)cc3)n2n1 : TPP: no hit; PreQ1: no hit

From ROBIN, a set of small-molecule microarray screens (doi:10.1002/anie.202211358).